{
  "source": "the supplement of paper PMC8728848",
  "binders": {"B1": {"name": "PX14343C-bfa-541-26-541 (Bacteroides fragilis) (protein)", "chain": "KAPLDEIADDSFWSDETLVKYYVNDLYSEISVDGLQLQENRSDNSVSAQRDKYRASWFKFNYDMVSASDPQDDDVWEDYYVKVRKCNRFFERIGTSTIEESEKSRLTGEVHFLRAMFYFEMVKRYGGVILLDKVLTMEDNWEIPRSSEKECYDFILEDLKKATEMLPASYGSREKGRATKGAAYALKSRVELYDKRYEDVIKSCAEVYKLGYELVDGTTPEKYRSIWWTTNKDNKEIIFDVQYKSPDVYNNMMVCNMVTYINDKYGDRGWGGLGPTQELIDAFEMADGTPATQYSQAPADQVFDINTCGIYEGREPRFYANIVFHGSQIFFNADKGAVTVDRYLMDTPDKGDGSLTGYNVWKWIDYDNYNYPYAGAGSPDFSTNWIILRYAEIYLNDAEARLETGDVEGARKAVNMIRQRVGLPDLTESDPEKLRELIRKERRIEFAFEEQRFYDVRRWKIGPETQTTLHGVRFVSPTEFKVTKTDIRTWNDRLYLTPVPHDEIVRSSVLKQNLGY"}},
  "experiment_in_all_cases": "glycan array binding signal (z-score within array); higher = stronger binding",
  "settings_in_all_cases": "glycan notation: IUPAC condensed, linker removed",
  "key": {"[1]": {"molecular_target": "Neu5Ac(a2-3)Gal(b1-4)GlcNAc(b1-6)GalNAc", "outline": "(§1)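 The Consortium for Functional Glycomics database supplied 3228 glycan arrays, of which those lacking an available protein sequence were dropped. The binding signal, a within-array Z-score, was averaged across arrays of the same protein sequence and across linkers. Negative scores can be read as non-binding.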"}, "[2]": {"molecular_target": "Neu5Ac(a2-3)Gal(b1-4)GlcNAc(b1-6)[Gal(b1-3)]GalNAc", "outline": "as §1"}, "[3]": {"molecular_target": "Neu5Ac(a2-3)Gal(b1-4)GlcNAc(b1-6)[Neu5Ac(a2-3)Gal(b1-3)]GalNAc", "outline": "as §1"}, "[4]": {"molecular_target": "Neu5Ac(a2-3)Gal(b1-4)GlcNAc6S", "outline": "as §1"}, "[5]": {"molecular_target": "Neu5Ac(a2-3)Gal(b1-4)[Fuc(a1-3)]GlcNAc", "outline": "as §1"}, "[6]": {"molecular_target": "Neu5Ac(a2-3)Gal(b1-4)[Fuc(a1-3)]GlcNAc(b1-2)Man", "outline": "as §1"}, "[7]": {"molecular_target": "Neu5Ac(a2-3)Gal(b1-4)[Fuc(a1-3)]GlcNAc(b1-3)Gal", "outline": "as §1"}, "[8]": {"molecular_target": "Neu5Ac(a2-3)Gal(b1-4)[Fuc(a1-3)]GlcNAc(b1-3)Gal(b1-4)GlcNAc", "outline": "as §1"}, "[9]": {"molecular_target": "Neu5Ac(a2-3)Gal(b1-4)[Fuc(a1-3)]GlcNAc(b1-3)Gal(b1-4)[Fuc(a1-3)]GlcNAc(b1-3)Gal(b1-4)[Fuc(a1-3)]GlcNAc", "outline": "as §1"}, "[10]": {"molecular_target": "Neu5Ac(a2-3)Gal(b1-4)[Fuc(a1-3)]GlcNAc(b1-3)GalNAc", "outline": "as §1"}, "[11]": {"molecular_target": "Neu5Ac(a2-3)Gal(b1-4)[Fuc(a1-3)]GlcNAc(b1-6)[Gal(b1-3)]GalNAc", "outline": "as §1"}, "[12]": {"molecular_target": "Neu5Ac(a2-3)Gal(b1-4)[Fuc(a1-3)]GlcNAc(b1-6)[Neu5Ac(a2-3)Gal(b1-3)]GalNAc", "outline": "as §1"}, "[13]": {"molecular_target": "Neu5Ac(a2-3)Gal(b1-4)[Fuc(a1-3)]GlcNAc6S", "outline": "as §1"}, "[14]": {"molecular_target": "Neu5Ac(a2-3)Gal6S(b1-4)GlcNAc", "outline": "as §1"}, "[15]": {"molecular_target": "Neu5Ac(a2-3)Gal6S(b1-4)[Fuc(a1-3)]GlcNAc", "outline": "as §1"}, "Neu5Ac(a2-3)GalNAc": {"molecular_target": "Neu5Ac(a2-3)GalNAc", "outline": "as §1"}, "[16]": {"molecular_target": "Neu5Ac(a2-3)GalNAc(b1-4)GlcNAc", "outline": "as §1"}, "[17]": {"molecular_target": "Neu5Ac(a2-3)[GalNAc(b1-4)]Gal(b1-4)Glc", "outline": "as §1"}, "[18]": {"molecular_target": "Neu5Ac(a2-3)[GalNAc(b1-4)]Gal(b1-4)GlcNAc", "outline": "as §1"}, "[19]": {"molecular_target": "Neu5Ac(a2-3)[GalNAc(b1-4)]Gal(b1-4)GlcNAc(b1-3)GalNAc", "outline": "as §1"}, "[20]": {"molecular_target": "Neu5Ac(a2-3)[Neu5Ac(a2-6)]GalNAc", "outline": "as §1"}, "Neu5Ac(a2-6)Gal": {"molecular_target": "Neu5Ac(a2-6)Gal", "outline": "as §1"}, "[21]": {"molecular_target": "Neu5Ac(a2-6)Gal(b1-3)GlcNAc(b1-3)[Gal(b1-4)GlcNAc(b1-6)]Gal(b1-4)Glc", "outline": "as §1"}, "Neu5Ac(a2-6)Gal(b1-4)Glc": {"molecular_target": "Neu5Ac(a2-6)Gal(b1-4)Glc", "outline": "as §1"}, "[22]": {"molecular_target": "Neu5Ac(a2-6)Gal(b1-4)GlcNAc", "outline": "as §1"}, "[23]": {"molecular_target": "Neu5Ac(a2-6)Gal(b1-4)GlcNAc(b1-2)Man", "outline": "as §1"}, "[24]": {"molecular_target": "Neu5Ac(a2-6)Gal(b1-4)GlcNAc(b1-2)Man(a1-3)Man(b1-4)GlcNAc(b1-4)GlcNAc", "outline": "as §1"}, "[25]": {"molecular_target": "Neu5Ac(a2-6)Gal(b1-4)GlcNAc(b1-2)Man(a1-3)[Gal(b1-4)GlcNAc(b1-2)Man(a1-6)]Man(b1-4)GlcNAc(b1-4)GlcNAc", "outline": "as §1"}, "[26]": {"molecular_target": "Neu5Ac(a2-6)Gal(b1-4)GlcNAc(b1-2)Man(a1-3)[GlcNAc(b1-2)Man(a1-6)]Man(b1-4)GlcNAc(b1-4)GlcNAc", "outline": "as §1"}, "[27]": {"molecular_target": "Neu5Ac(a2-6)Gal(b1-4)GlcNAc(b1-2)Man(a1-3)[GlcNAc(b1-4)][Neu5Ac(a2-6)Gal(b1-4)GlcNAc(b1-2)Man(a1-6)]Man(b1-4)GlcNAc(b1-4)GlcNAc", "outline": "as §1"}, "[28]": {"molecular_target": "Neu5Ac(a2-6)Gal(b1-4)GlcNAc(b1-2)Man(a1-3)[Man(a1-6)]Man(b1-4)GlcNAc(b1-4)GlcNAc", "outline": "as §1"}},
  "note": "The list shows a part of the results.",
  "data": [
    {"binder": "B1", "values": [
      {"measurement": "glycan array binding signal (z-score)", "setting": "[1]", "result": 0.25},
      {"measurement": "glycan array binding signal (z-score)", "setting": "[2]", "result": -0.756},
      {"measurement": "glycan array binding signal (z-score)", "setting": "[3]", "result": -0.291},
      {"measurement": "glycan array binding signal (z-score)", "setting": "[4]", "result": -0.358},
      {"measurement": "glycan array binding signal (z-score)", "setting": "[5]", "result": -0.688},
      {"measurement": "glycan array binding signal (z-score)", "setting": "[6]", "result": -0.669},
      {"measurement": "glycan array binding signal (z-score)", "setting": "[7]", "result": -0.275},
      {"measurement": "glycan array binding signal (z-score)", "setting": "[8]", "result": -0.19},
      {"measurement": "glycan array binding signal (z-score)", "setting": "[9]", "result": 0.044},
      {"measurement": "glycan array binding signal (z-score)", "setting": "[10]", "result": 0.474},
      {"measurement": "glycan array binding signal (z-score)", "setting": "[11]", "result": -0.182},
      {"measurement": "glycan array binding signal (z-score)", "setting": "[12]", "result": -0.091},
      {"measurement": "glycan array binding signal (z-score)", "setting": "[13]", "result": -0.7},
      {"measurement": "glycan array binding signal (z-score)", "setting": "[14]", "result": -0.876},
      {"measurement": "glycan array binding signal (z-score)", "setting": "[15]", "result": -1.03},
      {"measurement": "glycan array binding signal (z-score)", "setting": "Neu5Ac(a2-3)GalNAc", "result": -0.755},
      {"measurement": "glycan array binding signal (z-score)", "setting": "[16]", "result": -0.138},
      {"measurement": "glycan array binding signal (z-score)", "setting": "[17]", "result": 3.41},
      {"measurement": "glycan array binding signal (z-score)", "setting": "[18]", "result": 0.034},
      {"measurement": "glycan array binding signal (z-score)", "setting": "[19]", "result": 0.173},
      {"measurement": "glycan array binding signal (z-score)", "setting": "[20]", "result": -0.014},
      {"measurement": "glycan array binding signal (z-score)", "setting": "Neu5Ac(a2-6)Gal", "result": -0.786},
      {"measurement": "glycan array binding signal (z-score)", "setting": "[21]", "result": 0.425},
      {"measurement": "glycan array binding signal (z-score)", "setting": "Neu5Ac(a2-6)Gal(b1-4)Glc", "result": -0.113},
      {"measurement": "glycan array binding signal (z-score)", "setting": "[22]", "result": -0.496},
      {"measurement": "glycan array binding signal (z-score)", "setting": "[23]", "result": 0.443},
      {"measurement": "glycan array binding signal (z-score)", "setting": "[24]", "result": -0.352},
      {"measurement": "glycan array binding signal (z-score)", "setting": "[25]", "result": -0.436},
      {"measurement": "glycan array binding signal (z-score)", "setting": "[26]", "result": -0.97},
      {"measurement": "glycan array binding signal (z-score)", "setting": "[27]", "result": 1.5},
      {"measurement": "glycan array binding signal (z-score)", "setting": "[28]", "result": 3.29}
    ]}
  ]
}
